According to publication doi:10.1101/2022.02.27.481910 (bioRxiv, 2022):
These are yes or no findings as the source states them, for the method shown. Some results given as binding are weak or reduced against the parent protein; the word gives no strength.

Target: KaiC-EE (S431E, T432E) (UniProt Q79PF4)
Assay: cryo-EM structure

B1: KaiC-EE (S431E, T432E) (enzyme)
chain: EHQAIAKMRTMIEGFDDISHGGLPIGRSTLVSGTSGTGKTLFSIQFLYNGIIEFDEPGVFVTFEETPQDIIKNARSFGWDLAKLVDEGKLFILDASPDPEGQEVVGGFDLSALIERINYAIQKYRARRVSIDSVTSVFQQYDASSVVRRELFRLVARLKQIGATTVMTTERIEEYGPIARYGVEEFVSDNVVILRNVLEGERRRRTLEILKLRGTSHMKGEYPFTITDHGINIFPLGAMRLTQRSSNVRVSSGVVRLDEMCGGGFFKDSIILATGATGTGKTLLVSRFVENACANKERAILFAYEESRAQLLRNAYSWGMDFEEMERQNLLKIVCAYPESAGLEDHLQIIKSEINDFKPARIAIDSLSALARGVSNNAFRQFVIGVTGYAKQEEITGLFTNTSDQFMGAHSITDSHIEEITDTIILLQYVEIRGEMSRAINVFKMRGSWHDKAIREFMISDKGPDIKDSFRNFERIISGSPTRI
binding: binds
